These are yes or no findings as the source states them, for the method shown. Binding seen in cells or lysates may run through a third protein. These calls come from enrichment with a bait or labelling near it, and not all partners need be listed. Tags and fused reporters may be left off the sequences shown.
Target: T1, Helicobacter pylori adhesin HpaA (neuraminyllactose-binding hemagglutinin), recombinant, 6x His tagged (Helicobacter pylori (strain ATCC 26695)) (UniProt P55969)
T1 sequence: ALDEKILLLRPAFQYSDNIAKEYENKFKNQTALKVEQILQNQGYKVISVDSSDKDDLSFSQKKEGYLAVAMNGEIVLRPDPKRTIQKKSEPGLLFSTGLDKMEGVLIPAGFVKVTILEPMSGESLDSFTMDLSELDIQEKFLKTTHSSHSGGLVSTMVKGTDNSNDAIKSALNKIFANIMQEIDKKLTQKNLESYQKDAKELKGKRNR
Test: affinity purification with mass spectrometry; only the target purified

B1: Cleavage stimulation factor subunit 2 tau variant (protein, UniProt Q9H0L4 1-616)
chain: MSSLAVRDPAMDRSLRSVFVGNIPYEATEEQLKDIFSEVGSVVSFRLVYDRETGKPKGYGFCEYQDQETALSAMRNLNGREFSGRALRVDNAASEKNKEELKSLGPAAPIIDSPYGDPIDPEDAPESITRAVASLPPEQMFELMKQMKLCVQNSHQEARNMLLQNPQLAYALLQAQVVMRIMDPEIALKILHRKIHVTPLIPGKSQSVSVSGPGPGPGPGLCPGPNVLLNQQNPPAPQPQHLARRPVKDIPPLMQTPIQGGIPAPGPIPAAVPGAGPGSLTPGGAMQPQLGMPGVGPVPLERGQVQMSDPRAPIPRGPVTPGGLPPRGLLGDAPNDPRGGTLLSVTGEVEPRGYLGPPHQGPPMHHASGHDTRGPSSHEMRGGPLGDPRLLIGEPRGPMIDQRGLPMDGRGGRDSRAMETRAMETEVLETRVMERRGMETCAMETRGMEARGMDARGLEMRGPVPSSRGPMTGGIQGPGPINIGAGGPPQGPRQVPGISGVGNPGAGMQGTGIQGTGMQGAGIQGGGMQGAGIQGVSIQGGGIQGGGIQGASKQGGSQPSSFSPGQSQVTPQDQEKAALIMQVLQLTADQIAMLPPEQRQSILILKEQIQKSTGAS
- binding: binds
